Results reported in patent US20260062479A1.
These are yes or no findings as the source states them, for the method shown. Binding calls can cover weak binding; strength is not graded here.

Chains of the proteins cited; added tags and fusions are not shown. Lines headed by an entry give the natural chain unless they say otherwise; changes in a name come on top.
UniProt Q13488: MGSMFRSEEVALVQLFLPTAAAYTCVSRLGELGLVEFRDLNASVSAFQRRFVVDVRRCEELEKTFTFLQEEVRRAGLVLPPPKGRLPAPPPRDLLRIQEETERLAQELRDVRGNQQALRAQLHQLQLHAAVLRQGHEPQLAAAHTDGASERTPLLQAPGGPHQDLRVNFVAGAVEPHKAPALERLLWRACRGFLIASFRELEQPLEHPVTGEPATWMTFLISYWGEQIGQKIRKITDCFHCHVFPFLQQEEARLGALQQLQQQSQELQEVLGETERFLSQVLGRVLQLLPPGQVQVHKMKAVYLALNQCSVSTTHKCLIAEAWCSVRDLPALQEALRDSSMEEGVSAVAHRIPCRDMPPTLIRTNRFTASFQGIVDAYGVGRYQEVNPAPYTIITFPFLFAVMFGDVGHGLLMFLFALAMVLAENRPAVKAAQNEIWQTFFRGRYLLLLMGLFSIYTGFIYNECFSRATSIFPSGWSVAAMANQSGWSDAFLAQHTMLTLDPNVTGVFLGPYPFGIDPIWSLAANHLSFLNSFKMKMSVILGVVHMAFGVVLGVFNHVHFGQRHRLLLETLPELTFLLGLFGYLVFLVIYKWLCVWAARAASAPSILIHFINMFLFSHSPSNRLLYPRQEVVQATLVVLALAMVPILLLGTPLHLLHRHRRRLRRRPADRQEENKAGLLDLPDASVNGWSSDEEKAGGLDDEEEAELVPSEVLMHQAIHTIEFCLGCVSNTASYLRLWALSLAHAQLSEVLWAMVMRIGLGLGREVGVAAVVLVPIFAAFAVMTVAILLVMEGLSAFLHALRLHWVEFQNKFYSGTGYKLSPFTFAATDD

B1: cAB1459-10.0 (antibody, V domains shown)
VH: QVQLVQSGAEVKKPGASVKVSCKASGYTFTTYVMHWVRQAPGKGLEWMGYINPYNDGTNYNEKFKGRVTMTEDTSTDTAYMELSSLRSEDTAVYYCAEFITKTVGGSNWYLDVWGQGTTVTVSS
VL: DIQLTQSPSFLSASVGDRVTITCSASSSISYIHWFQQKPGKAPKRWIYDTSKLPSGVPSRFSGSGSGTEYTLTISSLQPEDFATYYCHQRSSYTWTFGGGTKLEIK
B2: cAB1468-10.0 (antibody, V domains shown)
VH: QVQLVQSGAEVKKPGASVKVSCKASGYTFTTYVMHWVRQAPGKGLEWMGYINPYNDGTNYNEKFKGRVTLTSDKSTSTAYMELSSLRSEDTAVYYCAEFITKTVGGSNWYLDVWGQGTTVTVSS
VL: EIVLTQSPATLSLSPGERATLSCSASSSISYIHWYQQKPGQAPRRLIYDTSKLPSGIPARFSGSGSGTDFTLTISSLEPEDFAVYYCHQRSSYTWTFGGGTKLEIK
B3: cAB1467-10.0 (antibody, V domains shown)
VH: QVQLVQSGAEVKKPGASVKVSCKASGYTFTTYVMHWVRQAPGKGLEWMGYINPYNDGTNYNEKFKGRVTLTSDKSTSTAYMELSSLRSEDTAVYYCAEFITKTVGGSNWYLDVWGQGTTVTVSS
VL: DIQLTQSPSFLSASVGDRVTITCSASSSISYIHWFQQKPGKAPKRWIYDTSKLPSGVPSRFSGSGSGTEYTLTISSLQPEDFATYYCHQRSSYTWTFGGGTKLEIK

The binders below were run against largest TIRC7 extracellular domain (T-cell immune response cDNA 7) (human) (UniProt Q13488) (assay: SPR, Biacore T200).

binding, binds:
B1
B2
B3
